These are yes or no findings as the source states them, for the method shown. Binding seen in cells or lysates may run through a third protein. Some entries that bind do so weakly or less than the wild type.
Columns and labels:
Test in all cases: split reporter; BiFC: NY (YFP 1-172) and CY (YFP 173-238) fusions co-transfected into HeLa cells with mRFP1; live-cell confocal microscopy at 37°C and 5% CO2, about 14 h after transfection
H257R-CY (human) = H257R-CY (human) (UniProt Q9HC16)
C288S-CY (human) = C288S-CY (human) (UniProt Q9HC16)
C97S-CY (human) = C97S-CY (human) (UniProt Q9HC16)

Amino acid sequences for entries named in this document (tags omitted). A change or cut given only in a name is not applied to a line headed by its entry.
UniProt Q9HC16: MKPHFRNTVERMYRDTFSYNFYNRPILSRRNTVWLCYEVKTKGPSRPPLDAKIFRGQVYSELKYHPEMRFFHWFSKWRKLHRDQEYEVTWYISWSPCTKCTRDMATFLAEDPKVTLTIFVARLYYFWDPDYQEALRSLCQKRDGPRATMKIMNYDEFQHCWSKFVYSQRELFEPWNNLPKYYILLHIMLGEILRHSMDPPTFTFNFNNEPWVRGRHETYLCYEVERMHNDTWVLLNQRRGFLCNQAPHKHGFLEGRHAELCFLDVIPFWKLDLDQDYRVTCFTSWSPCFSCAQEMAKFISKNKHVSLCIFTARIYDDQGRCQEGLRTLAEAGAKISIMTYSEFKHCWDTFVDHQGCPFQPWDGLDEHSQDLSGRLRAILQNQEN

binding (H257R-CY (human)): binds weakly
binding (C288S-CY (human)): binds weakly
binding (C97S-CY (human)): no binding
Substance: C97S-NY (from UniProt Q9HC16 1-384)
